Source: US20210087533A1, “CANINE EPITHELIAL ORGANOIDS AND METHODS OF MAKING, RECOVERING, AND USE” (Iowa State University Research Foundation, Inc., priority 2019, published 2021)
Where a name gives a salt, the structure may show the parent alone. For some assays here: The name of at least one read-out is uncertain. For some assays here: At least one structure is not confirmed: it was looked up by name or label, or the drawing left a doubt.

Assays:
[1] = test system: CFTR-Cl-channels of IBD enteroids; assay: CFTR organoid swelling assay; assay type: cell-based, canine; details: images after 0 and 1 hr, Control vs. Forskolin
[2] = test system: canine colonoid-derived monolayer; assay: Apparent permeability across canine colonoid-derived monolayer; assay type: in vitro ADME; details: apical to basolateral; Day 2 to Day 6 of culture; 0.05 μg/mL

Row | Structure (SMILES) | swelling of IBD enteroids [1] | apparent paracellular permeability (Papp) [2]
1 | C=C[C@@]1(C)CC(=O)[C@]2(O)[C@@]3(C)[C@@H](O)CCC(C)(C)[C@@H]3[C@H](O)[C@H](OC(C)=O)[C@@]2(C)O1 [Forskolin] | induces swelling | –
2 | O=C1OC2(c3ccc(O)cc3Oc3cc(O)ccc32)c2ccccc21 [fluorescein sodium salt] | – | significantly decreased
